Test results reported in article PMC9166295.

Key:
[1] = biological target: VIR3^H239Y-FLAG in stably transformed Arabidopsis vir3-1 (vir3-1/pUBQ::VIR3^H239Y-FLAG) (Arabidopsis); experiment: co-IP; anti-FLAG M2 beads; proteins of enriched chloroplasts of 14-day-old stably transformed Arabidopsis vir3-1 lines in 1x PBS, 0.3% Triton X-100; immunoblots with tAPX and GAPB-specific antibodies
[2] = biological target: VIR3-FLAG in stably transformed Arabidopsis vir3-1 (vir3-1/pUBQ::VIR3-FLAG) (Arabidopsis); experiment: as above

binding [1] | binding [2] | Binder
binds | binds | GAPB, endogenous in Arabidopsis seedlings (enzyme, UniProt P25857 81-447) KLKVAINGFGRIGRNFLRCWHGRKDSPLEVVVLNDSGGVKNASHLLKYDSMLGTFKAEVKIVDNETISVDGKLIKVVSNRDPLKLPWAELGIDIVIEGTGVFVDGPGAGKHIQAGASKVIITAPAKGADIPTYVMGVNEQDYGHDVANIISNASCTTNCLAPFAKVLDEEFGIVKGTMTTTHSYTGDQRLLDASHRDLRRARAAALNIVPTSTGAAKAVSLVLPQLKGKLNGIALRVPTPNVSVVDLVINVEKKGLTAEDVNEAFRKAANGPMKGILDVCDAPLVSVDFRCSDVSTTIDSSLTMVMGDDMVKVVAWYDNEWGYSQRVVDLAHLVASKWPGAEAVGSGDPLEDFCKTNPADEECKVYD
binds | binds | tAPX, endogenous in Arabidopsis seedlings (enzyme, UniProt Q42593 79-426) AASDAAQLISAKEDIKVLLRTKFCHPILVRLGWHDAGTYNKNIEEWPLRGGANGSLRFEAELKHAANAGLLNALKLIQPLKDKYPNISYADLFQLASATAIEEAGGPDIPMKYGRVDVVAPEQCPEEGRLPDAGPPSPADHLRDVFYRMGLDDKEIVALSGAHTLGRARPDRSGWGKPETKYTKTGPGEAGGQSWTVKWLKFDNSYFKDIKEKRDDDLLVLPTDAALFEDPSFKNYAEKYAEDVAAFFKDYAEAHAKLSNLGAKFDPPEGIVIENVPEKFVAAKYSTGKKELSDSMKKKIRAEYEAIGGSPDKPLPTNYFLNIIIAIGVLVLLSTLFGGNNNSDFSGF

No constants are given. Whether binding was seen depends on the method and setting. In cells and extracts the contact can be indirect. A result given as binding can be weak or reduced; the word gives no strength.
